Negatives hold for the conditions tested.
Target: Tenascin-C (Homo sapiens) (UniProt P24821)
Test: filter binding
Conditions: 2'-F all C and U; 2'-OMe G28,G31,G34; 3'-3' dT cap; listed as nb in Kd column; purified native protein; protein details: Chemicon (Temecula, CA); variant of TN9.4

Amino acid sequences for entries named in this document (tags omitted). Residues count along the entry.
UniProt P24821, 23-2201: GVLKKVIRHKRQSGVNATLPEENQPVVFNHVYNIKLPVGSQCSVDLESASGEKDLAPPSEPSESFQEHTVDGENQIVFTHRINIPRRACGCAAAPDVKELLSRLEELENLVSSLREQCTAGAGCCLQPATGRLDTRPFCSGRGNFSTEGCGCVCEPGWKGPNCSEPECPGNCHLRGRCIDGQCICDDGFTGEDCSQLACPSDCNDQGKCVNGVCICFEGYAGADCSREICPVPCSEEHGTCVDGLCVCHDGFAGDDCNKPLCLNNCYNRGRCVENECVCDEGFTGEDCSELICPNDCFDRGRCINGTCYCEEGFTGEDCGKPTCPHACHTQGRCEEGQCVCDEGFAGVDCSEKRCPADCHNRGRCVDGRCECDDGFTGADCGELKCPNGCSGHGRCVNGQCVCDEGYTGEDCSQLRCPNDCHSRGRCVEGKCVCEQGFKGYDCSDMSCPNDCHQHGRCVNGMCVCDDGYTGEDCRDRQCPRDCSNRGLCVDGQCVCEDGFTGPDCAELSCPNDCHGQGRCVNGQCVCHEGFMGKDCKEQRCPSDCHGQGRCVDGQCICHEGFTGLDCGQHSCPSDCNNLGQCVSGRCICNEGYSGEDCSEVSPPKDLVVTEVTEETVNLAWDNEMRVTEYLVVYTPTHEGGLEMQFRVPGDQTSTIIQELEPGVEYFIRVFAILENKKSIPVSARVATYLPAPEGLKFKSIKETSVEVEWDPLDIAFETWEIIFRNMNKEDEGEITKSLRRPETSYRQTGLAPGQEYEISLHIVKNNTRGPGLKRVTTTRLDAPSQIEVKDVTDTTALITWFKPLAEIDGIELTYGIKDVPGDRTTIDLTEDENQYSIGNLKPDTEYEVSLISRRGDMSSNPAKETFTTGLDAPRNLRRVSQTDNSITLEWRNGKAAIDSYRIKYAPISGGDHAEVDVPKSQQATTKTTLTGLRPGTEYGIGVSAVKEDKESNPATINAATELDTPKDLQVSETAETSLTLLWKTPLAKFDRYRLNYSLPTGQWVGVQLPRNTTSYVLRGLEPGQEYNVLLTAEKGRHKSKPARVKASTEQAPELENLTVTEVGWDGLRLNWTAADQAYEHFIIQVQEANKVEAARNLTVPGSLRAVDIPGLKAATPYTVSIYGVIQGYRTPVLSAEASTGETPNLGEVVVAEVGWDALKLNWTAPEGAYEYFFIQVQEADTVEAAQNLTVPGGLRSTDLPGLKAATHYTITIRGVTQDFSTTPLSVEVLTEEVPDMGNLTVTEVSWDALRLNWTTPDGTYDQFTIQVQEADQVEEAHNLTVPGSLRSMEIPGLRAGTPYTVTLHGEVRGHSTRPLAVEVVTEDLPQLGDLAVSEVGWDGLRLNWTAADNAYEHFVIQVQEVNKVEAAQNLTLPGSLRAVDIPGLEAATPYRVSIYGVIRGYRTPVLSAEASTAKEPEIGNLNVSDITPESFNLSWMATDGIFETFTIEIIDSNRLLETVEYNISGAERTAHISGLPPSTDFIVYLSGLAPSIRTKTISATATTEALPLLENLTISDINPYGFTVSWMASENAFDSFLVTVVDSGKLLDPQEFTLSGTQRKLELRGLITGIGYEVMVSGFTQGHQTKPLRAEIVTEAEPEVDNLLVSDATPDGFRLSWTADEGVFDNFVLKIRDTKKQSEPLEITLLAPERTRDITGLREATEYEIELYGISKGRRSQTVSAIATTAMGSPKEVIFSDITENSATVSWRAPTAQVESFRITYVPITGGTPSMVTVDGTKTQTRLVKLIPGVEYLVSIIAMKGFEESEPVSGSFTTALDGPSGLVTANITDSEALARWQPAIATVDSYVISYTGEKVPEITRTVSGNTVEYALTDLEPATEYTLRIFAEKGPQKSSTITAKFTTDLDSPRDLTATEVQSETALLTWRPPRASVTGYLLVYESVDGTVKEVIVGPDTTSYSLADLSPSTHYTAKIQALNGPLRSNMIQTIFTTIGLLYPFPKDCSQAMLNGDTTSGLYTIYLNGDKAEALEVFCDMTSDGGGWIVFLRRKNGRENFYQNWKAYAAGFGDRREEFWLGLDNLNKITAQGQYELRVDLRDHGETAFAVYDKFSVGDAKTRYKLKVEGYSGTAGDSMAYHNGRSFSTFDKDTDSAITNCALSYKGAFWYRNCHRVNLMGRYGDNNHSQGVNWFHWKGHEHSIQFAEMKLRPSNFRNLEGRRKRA

## GGGAGGACGAUGCGGAACAAUGCACUCGUCGCCGUAAUGGAUGUUUUGCUCCCUG [TN9.4M4]
  binding result: no binding

Source: patent US20060105378
